PubChem BioAssay AID743454 | Peter MacCallum Cancer Centre, 2014
Test: 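Search for knock-downs that restore vorinostat killing in resistant colon cancer cells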 (primary screen). Cell system: human HCT116-VR colon cancer cells, selected for vorinostat resistance. Reagent: siRNA pool against human genes, 40 nM siRNA pool. Time to read-out: vorinostat for 24 h, read-out about 72 h after transfection. Conditions: vorinostat at 2.5 µM final. Measurement: 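Cell viability by CellTiter-Fluor and caspase 3/7 activity by luminescence, each scaled to mock wells per plate, duplicates averaged, then robust z-scored over all plates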. Direction: viability robust z-score: higher = more viable cells than screen typical; caspase robust z-score: higher = more caspase 3/7 activity than screen typical. Hit rule: 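Hits are knock-downs in viability class RV1/RV2 or caspase class CA1/CA2, excluding ones that killed cells in the no-drug cell-count arm; hits then retested with single siRNAs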.
This is one part, drawn at random, of about 18,000 reagents tested. 450 of all reagents (2.5%) count as active. 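Single biological run; no consistent viability z cut-off exists, so the class columns, not z-scores, define the calls.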 A number with no mark means an inactive call. Reagent sequences are not shown.

target,viability hit class,caspase hit class,viability robust z-score,caspase robust z-score
AKR1C8 (aldo-keto reductase family 1 member C8),no change,no change,-0.22,-0.57
VEZF1 (vascular endothelial zinc finger 1),no change,no change,0.25,-1.01
"POLG2 (DNA polymerase gamma 2, accessory subunit)",no change,no change,-1.62,-0.4
SLC6A20,no change,no change,0.22,-0.9
FGF7 (fibroblast growth factor 7),no change,no change,-1.25,-0.1
EIF3E (eukaryotic translation initiation factor 3 subunit E),no change,no change,-2.26,-1
SNAP47 (synaptosome associated protein 47),no change,no change,-0.82,-0.42
OR2T1 (olfactory receptor family 2 subfamily T member 1),no change,no change,1.15,-0.63
KCNAB1,no change,no change,-0.45,-0.04
IGSF6 (immunoglobulin superfamily member 6),no change,no change,-0.15,-0.65
ZC3H10 (zinc finger CCCH-type containing 10),no change,no change,-0.34,3.38
POTEG (POTE ankyrin domain family member G),no change,no change,-0.78,1.34
DNA2 (DNA replication helicase/nuclease 2),no change,no change,-1.66,3.75
VASP (vasodilator stimulated phosphoprotein),no change,no change,-0.38,-1.21
SLC35E4,no change,no change,0.29,0.1
USP5 (ubiquitin specific peptidase 5),no change,no change,0.04,1.84
IQCK (IQ motif containing K),no change,no change,-0.94,1.02
SLC25A44,no change,no change,-1.36,-0.71
"CBY1 (chibby 1, beta catenin antagonist)",no change,no change,1.96,0.4
NDUFA7 (NADH:ubiquinone oxidoreductase subunit A7),no change (active),CA2 (caspase activation),-1.78,5.74
FOXG1 (forkhead box G1),no change,no change,-0.28,1.5
C20orf96 (chromosome 20 open reading frame 96),no change,no change,-1.71,-0.1
SLC36A3,no change,no change,0.09,1.38
FAM163A (family with sequence similarity 163 member A),no change,no change,-0.81,-0.72
HS3ST2 (heparan sulfate-glucosamine 3-sulfotransferase 2),no change,no change,0.84,-0.16
F2RL2 (coagulation factor II thrombin receptor like 2),no change,no change,0.07,-0.01
MACF1 (microtubule actin crosslinking factor 1),no change,no change,-1.3,0.57
AXIN2 (axin 2),no change,no change,0.88,-0.84
SRRM3 (serine/arginine repetitive matrix 3),no change,no change,1.06,0.36
GPR19 (G protein-coupled receptor 19),no change,no change,-1.25,-1.23
"SEC24B (SEC24 homolog B, COPII component)",no change,no change,-0.31,-0.52
"MEFV (MEFV innate immunity regulator, pyrin)",no change,no change,0.8,-0.54
SPRR2G (small proline rich protein 2G),no change,no change,0.68,-0.62
ZFAND3 (zinc finger AN1-type containing 3),no change,no change,-0.2,-1.06
PLA2G3 (phospholipase A2 group III),no change,no change,-0.96,-0.24
DLX6 (distal-less homeobox 6),no change,no change,0.28,1.47
MT1F (metallothionein 1F),no change,no change,0.22,0.46
ISL2 (ISL LIM homeobox 2),no change,no change,-1.27,2.52
YWHAQ,no change,no change,0.86,0.15
CTNNBIP1 (catenin beta interacting protein 1),no change,no change,0.14,0.91
ABCA2 (ATP binding cassette subfamily A member 2),no change,no change,-2.06,2.29
IL9R (interleukin 9 receptor),no change,no change,-0.99,2.05
SMAD9 (SMAD family member 9),no change,no change,0.98,-0.08
DHX35 (DEAH-box helicase 35),no change,no change,0.14,-1.04
SPINK9 (serine peptidase inhibitor Kazal type 9),no change,no change,-0.98,0.05
CDC73 (cell division cycle 73),no change,no change,-0.86,2.82
"ST6GALNAC5 (ST6 N-acetylgalactosaminide alpha-2,6-sialyltransferase 5)",no change,no change,0.31,0.56
NEURL3 (neuralized E3 ubiquitin protein ligase 3),no change,no change,-0.91,4.69
ZNF84 (zinc finger protein 84),no change,no change,1.24,0.11
ANKRD39 (ankyrin repeat domain 39),no change,no change,-0.28,3.6
SOFU1 (sperm-oocyte fusion factor 1),no change,no change,0.26,0.31
ZNF311 (zinc finger protein 311),no change,no change,0.88,0.33
LIN37 (lin-37 DREAM MuvB core complex component),no change,no change,-0.26,1.91
CCN4 (cellular communication network factor 4),no change,no change,-0.2,2.5
CHGA (chromogranin A),no change,no change,0.55,0.57
METTL3,no change,no change,1.78,0.76
ENO3 (enolase 3),no change,no change,0.7,0.07

Called active, of those listed so far:
target,viability hit class,caspase hit class,viability robust z-score,caspase robust z-score
NDUFA7 (NADH:ubiquinone oxidoreductase subunit A7),no change (active),CA2 (caspase activation),-1.78,5.74
